{"sequences": {"note": "Protein sequences, listed by entry. Tags and fused reporters are not part of them. Residues count along the entry.", "UniProt Q08255, residues 36-403": "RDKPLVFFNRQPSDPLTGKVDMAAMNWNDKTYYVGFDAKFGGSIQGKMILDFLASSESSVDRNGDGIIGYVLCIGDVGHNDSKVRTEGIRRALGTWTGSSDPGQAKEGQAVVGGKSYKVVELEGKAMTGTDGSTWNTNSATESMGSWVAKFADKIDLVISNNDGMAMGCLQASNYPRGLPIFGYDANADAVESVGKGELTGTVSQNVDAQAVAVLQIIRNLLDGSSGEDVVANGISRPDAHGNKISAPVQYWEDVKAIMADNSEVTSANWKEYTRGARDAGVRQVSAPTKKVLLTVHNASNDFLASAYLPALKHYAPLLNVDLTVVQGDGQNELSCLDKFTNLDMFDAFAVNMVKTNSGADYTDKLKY"}, "source": "paper PMC4990184", "about": "“The Tp0684 (MglB-2) Lipoprotein of Treponema pallidum: A Glucose-Binding Protein with Divergent Topology” (PLoS ONE, 2016)", "target": "TpMglB-2 (Tp0684), soluble non-lipidated recombinant form, residues 11-378 (Treponema pallidum) (UniProt Q08255)", "assay": "AUC; sedimentation velocity, 20 °C, 50,000 rpm, Assay Buffer (10 mM sodium phosphate, pH 7.4, 100 mM NaCl); 0.6–5 mg/mL protein, in the presence and absence of D-glucose; both purified", "note": "No constants are given. Whether binding was seen depends on the method and setting.", "data": [{"substance": "TpMglB-2 (Tp0684), soluble non-lipidated recombinant form, residues 11-378 (from UniProt Q08255 36-403) (domain or fragment)", "values": [{"measurement": "binding", "value": "no binding (tested: 0.6–5 mg/mL)"}]}]}
